Results are given in words; binding and its absence hold for the method and conditions named. In cells and extracts the contact can be indirect. Here binding means that the protein was enriched with, or labelled near, the bait; the list need not be complete. For part of these data: Sequences can lack the tags named with a protein.
T1: GABAA receptor α1 subunit (Gabra1) (mouse (endogenous in hippocampus and olfactory bulb)), P62812
T1 chain: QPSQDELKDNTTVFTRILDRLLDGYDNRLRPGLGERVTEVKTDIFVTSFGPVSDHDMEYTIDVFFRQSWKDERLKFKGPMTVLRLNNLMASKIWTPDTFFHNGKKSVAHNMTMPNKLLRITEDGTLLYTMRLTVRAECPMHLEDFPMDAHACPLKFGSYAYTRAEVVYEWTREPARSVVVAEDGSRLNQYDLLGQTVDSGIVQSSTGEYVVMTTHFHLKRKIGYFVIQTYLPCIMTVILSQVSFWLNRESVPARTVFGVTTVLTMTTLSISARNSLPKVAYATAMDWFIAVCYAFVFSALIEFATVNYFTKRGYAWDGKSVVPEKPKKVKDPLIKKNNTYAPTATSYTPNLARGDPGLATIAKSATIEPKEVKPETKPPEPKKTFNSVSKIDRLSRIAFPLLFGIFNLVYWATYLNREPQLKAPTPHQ

By UniProt entry, the sequences of proteins in these tests, tags left out. Residues count along the entry.
UniProt Q69ZK9, residues 15-836: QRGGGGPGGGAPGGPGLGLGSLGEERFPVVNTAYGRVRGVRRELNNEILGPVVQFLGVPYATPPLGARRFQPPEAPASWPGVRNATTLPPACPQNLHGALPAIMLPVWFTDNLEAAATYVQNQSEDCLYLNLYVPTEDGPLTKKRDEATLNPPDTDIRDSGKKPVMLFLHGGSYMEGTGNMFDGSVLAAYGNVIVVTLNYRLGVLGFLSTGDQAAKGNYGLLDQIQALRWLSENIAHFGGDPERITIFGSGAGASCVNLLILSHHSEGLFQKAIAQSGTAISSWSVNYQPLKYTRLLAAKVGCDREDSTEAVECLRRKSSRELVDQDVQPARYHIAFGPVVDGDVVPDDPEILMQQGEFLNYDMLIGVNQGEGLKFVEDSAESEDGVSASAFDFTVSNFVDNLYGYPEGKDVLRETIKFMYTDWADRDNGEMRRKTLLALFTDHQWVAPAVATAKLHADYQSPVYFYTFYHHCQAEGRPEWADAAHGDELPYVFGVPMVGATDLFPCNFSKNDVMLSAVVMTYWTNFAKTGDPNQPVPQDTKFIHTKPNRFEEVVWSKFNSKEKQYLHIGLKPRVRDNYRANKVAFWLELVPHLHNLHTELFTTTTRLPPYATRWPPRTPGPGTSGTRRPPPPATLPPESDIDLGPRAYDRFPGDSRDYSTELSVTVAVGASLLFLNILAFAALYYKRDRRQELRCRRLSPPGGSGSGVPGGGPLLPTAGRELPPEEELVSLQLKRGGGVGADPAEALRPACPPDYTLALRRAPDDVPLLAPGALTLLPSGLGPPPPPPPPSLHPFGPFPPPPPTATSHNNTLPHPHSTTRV

T2: GABAA receptor α5 subunit (Gabra5) (mouse (endogenous in hippocampus and olfactory bulb)), Q8BHJ7
T2 chain: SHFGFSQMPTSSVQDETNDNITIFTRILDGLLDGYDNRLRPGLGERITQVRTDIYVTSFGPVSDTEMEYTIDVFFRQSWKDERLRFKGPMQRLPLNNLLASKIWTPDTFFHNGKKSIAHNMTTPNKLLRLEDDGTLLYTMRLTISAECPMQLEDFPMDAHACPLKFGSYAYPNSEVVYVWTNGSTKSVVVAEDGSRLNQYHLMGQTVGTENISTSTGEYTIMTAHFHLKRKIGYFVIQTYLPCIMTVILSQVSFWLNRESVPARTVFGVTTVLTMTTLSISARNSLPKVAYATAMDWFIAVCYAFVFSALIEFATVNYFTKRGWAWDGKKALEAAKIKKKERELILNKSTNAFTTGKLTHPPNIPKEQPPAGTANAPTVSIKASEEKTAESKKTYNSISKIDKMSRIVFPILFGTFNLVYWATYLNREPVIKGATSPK


Experiments:
Test in all cases: affinity purification with mass spectrometry; immunoprecipitation with 2 µg antibody (anti-α5, anti-α1, anti-Nlgn2 or control anti-GluA2/3) from 1% MNG extracts of mouse hippocampus and olfactory bulb, overnight 4 °C, protein A/G plus agarose beads, four washes with 0.1% MNG, 25 mM HEPES, 150 mM NaCl pH 7.4; SDS-PAGE, diaPASEF mass spectrometry; iBAQ normalised to the bait
[1] = target: GABAA receptor α5 subunit (Gabra5) (mouse (endogenous in hippocampus and olfactory bulb)) (UniProt Q8BHJ7)
[2] = target: GABAA receptor α1 subunit (Gabra1) (mouse (endogenous in hippocampus and olfactory bulb)) (UniProt P62812)
[3] = target: T1, GABAA receptor α1 subunit (Gabra1) …; details: remark: other sources report otherwise
[4] = target: T2, GABAA receptor α5 subunit (Gabra5) …; details: remark: other sources report otherwise

Row | Molecule | binding [1] | binding [2] | also measured
1 | GABAA receptor δ subunit (from UniProt P22933 25-449) | binds | – | –
2 | Neuroligin 2 (Nlgn2) (from UniProt Q69ZK9 15-836) | binds | binds | –
3 | GABAA receptor α4 subunit, Q9D6F4 36-552 (protein) QNSKDEKLCPENFTRILDSLLDGYDNRLRPGFGGPVTEVKTDIYVTSFGPVSDVEMEYTMDVFFRQTWIDKRLKYDGPIEILRLNNMMVTKVWTPDTFFRNGKKSVSHNMTAPNKLFRIMRNGTILYTMRLTISAECPMRLVDFPMDGHACPLKFGSYAYPKSEMIYTWTKGPEKSVEVPKESSSLVQYDLIGQTVSSETIKSITGEYIVMTVYFHLRRKMGYFMIQTYIPCIMTVILSQVSFWINKESVPARTVFGITTVLTMTTLSISARHSLPKVSYATAMDWFIAVCFAFVFSALIEFAAVNYFTNIQMQKAKKKISKPPPEVPAAPVLKEKHTETSLQNTHANLNMRKRTNALVHSESDVKSRTEVGNHSSKTSAVQESSEATPKAHLASSPNPFSRANAAETMSAAARGLSSAASPSPHGTLRPASLGSASTRPAFGSRLGRIKTTVNTTGAAGNVSATPPPPAPPPSGSGTSKIDKYARILFPVTFGAFNMVYWVVYLSKDTMEKSESLM | – | – | binding [3]: binds
4 | Lipoma HMGIC fusion partner-like 4 (Lhfpl4) (protein, UniProt Q5U4E0 1-247) MLPSQEASKLYHEHYMRNSRAIGVLWAIFTICFAIINVVVFIQPYWVGDSVSTPKPGYFGLFHYCVGSGLAGRELTCRGSFTDFSTIPSSAFKAAAFFVLLSMVLILGCITCFALFFFCNTATVYKICAWMQLLAALCLVLGCMIFPDGWDAETIRDMCGAKTGKYSLGDCSVRWAYILAIIGILNALILSFLAFVLGNRQTDLLQEELKQENKDFVGTTVSSVLRPGGDVSGWGVLPCPVAHTQGP | – | binds | –
5 | GABAA receptor α2 subunit, P26048 29-451 (protein) NIQEDEAKNNITIFTRILDRLLDGYDNRLRPGLGDSITEVFTNIYVTSFGPVSDTDMEYTIDVFFRQKWKDERLKFKGPMNILRLNNLMASKIWTPDTFFHNGKKSVAHNMTMPNKLLRIQDDGTLLYTMRLTVQAECPMHLEDFPMDAHSCPLKFGSYAYTTSEVTYIWTYNASDSVQVAPDGSRLNQYDLLGQSIGKETIKSSTGEYTVMTAHFHLKRKIGYFVIQTYLPCIMTVILSQVSFWLNRESVPARTVFGVTTVLTMTTLSISARNSLPKVAYATAMDWFIAVCYAFVFSALIEFATVNYFTKRGWAWDGKSVVNDKKKEKGSVMIQNNAYAVAVANYAPNLSKDPVLSTISKSATTPEPNKKPENKPAEAKKTFNSVSKIDRMSRIVFPVLFGTFNLVYWATYLNREPVLGVSP | – | – | binding [4]: binds

Source: paper PMC10778189
